Publication PMC6525465
These are yes or no findings as the source states them, for the method shown. Binding seen in cells or lysates may run through a third protein. Some entries that bind do so weakly or less than the wild type.

Amino acid sequences for entries named in this document (tags omitted).
UniProt P14618: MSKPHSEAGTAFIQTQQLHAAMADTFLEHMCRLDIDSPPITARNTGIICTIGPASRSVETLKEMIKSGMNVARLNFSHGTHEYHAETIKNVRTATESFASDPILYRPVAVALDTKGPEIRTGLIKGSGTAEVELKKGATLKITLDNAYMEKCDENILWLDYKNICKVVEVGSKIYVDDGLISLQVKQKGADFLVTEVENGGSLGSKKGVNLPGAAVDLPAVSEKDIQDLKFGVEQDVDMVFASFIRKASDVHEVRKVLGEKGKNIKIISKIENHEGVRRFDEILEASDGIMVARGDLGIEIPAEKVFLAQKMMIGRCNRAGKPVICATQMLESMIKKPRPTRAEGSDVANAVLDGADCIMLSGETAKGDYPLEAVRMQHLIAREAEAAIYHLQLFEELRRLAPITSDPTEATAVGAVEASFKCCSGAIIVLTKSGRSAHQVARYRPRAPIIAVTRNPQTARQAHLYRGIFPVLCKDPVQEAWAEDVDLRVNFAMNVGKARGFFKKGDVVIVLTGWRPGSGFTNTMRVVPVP
UniProt Q16665: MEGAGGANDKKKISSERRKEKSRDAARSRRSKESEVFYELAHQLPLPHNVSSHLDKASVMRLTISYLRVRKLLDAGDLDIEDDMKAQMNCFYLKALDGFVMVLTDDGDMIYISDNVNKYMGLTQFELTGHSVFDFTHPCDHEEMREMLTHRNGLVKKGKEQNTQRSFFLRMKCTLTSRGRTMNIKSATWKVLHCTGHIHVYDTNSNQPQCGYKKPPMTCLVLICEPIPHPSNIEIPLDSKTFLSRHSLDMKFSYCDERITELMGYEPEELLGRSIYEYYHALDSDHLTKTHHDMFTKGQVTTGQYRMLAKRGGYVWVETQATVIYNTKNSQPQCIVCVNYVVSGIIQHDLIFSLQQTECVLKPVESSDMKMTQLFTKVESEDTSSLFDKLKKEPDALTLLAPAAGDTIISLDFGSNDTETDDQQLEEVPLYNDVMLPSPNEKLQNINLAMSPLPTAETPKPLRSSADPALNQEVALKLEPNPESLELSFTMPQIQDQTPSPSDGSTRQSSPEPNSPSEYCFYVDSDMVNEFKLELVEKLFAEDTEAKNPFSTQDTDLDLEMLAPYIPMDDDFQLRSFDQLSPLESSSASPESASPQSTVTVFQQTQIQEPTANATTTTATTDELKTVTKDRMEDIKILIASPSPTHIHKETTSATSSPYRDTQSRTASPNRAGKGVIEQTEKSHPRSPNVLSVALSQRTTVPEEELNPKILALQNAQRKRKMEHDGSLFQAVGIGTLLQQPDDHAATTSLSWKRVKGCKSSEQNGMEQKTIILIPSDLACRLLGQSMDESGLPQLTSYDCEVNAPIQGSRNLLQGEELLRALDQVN

Target: pyruvate kinase M2 (human (endogenous in HCC-LM3 and SMMC-7721)) (UniProt P14618)
Test: co-IP; HCC cell lines, untreated (NC) or treated with 80 μM PB2 for 24 h; lysed at 4 °C in IP Lysis/Wash Buffer with protease inhibitors; Pierce Co-immunoprecipitation Kit; PKM2 as bait, blots for HIF-1α and HSP90

“hypoxia-inducible factor 1α (from UniProt Q16665 1-826)” was tested, and the binding was “binds”.
